These are yes or no findings as the source states them, for the method shown. For part of these data: Binding can be weak; no strength is given. Tags and fused reporters may be left off the sequences shown.
Assays:
Experiment in all cases: two-hybrid; rice HATs in pGBKT7, ACL cDNAs in pGADT7; growth on SD-LTHA (-Leu/-Trp/-His/-Ade) solid medium
[1] = molecular target: T1, ADA2, yeast two-hybrid fusion (rice (Oryza sativa)) (UniProt Q75LL6)
T1 sequence: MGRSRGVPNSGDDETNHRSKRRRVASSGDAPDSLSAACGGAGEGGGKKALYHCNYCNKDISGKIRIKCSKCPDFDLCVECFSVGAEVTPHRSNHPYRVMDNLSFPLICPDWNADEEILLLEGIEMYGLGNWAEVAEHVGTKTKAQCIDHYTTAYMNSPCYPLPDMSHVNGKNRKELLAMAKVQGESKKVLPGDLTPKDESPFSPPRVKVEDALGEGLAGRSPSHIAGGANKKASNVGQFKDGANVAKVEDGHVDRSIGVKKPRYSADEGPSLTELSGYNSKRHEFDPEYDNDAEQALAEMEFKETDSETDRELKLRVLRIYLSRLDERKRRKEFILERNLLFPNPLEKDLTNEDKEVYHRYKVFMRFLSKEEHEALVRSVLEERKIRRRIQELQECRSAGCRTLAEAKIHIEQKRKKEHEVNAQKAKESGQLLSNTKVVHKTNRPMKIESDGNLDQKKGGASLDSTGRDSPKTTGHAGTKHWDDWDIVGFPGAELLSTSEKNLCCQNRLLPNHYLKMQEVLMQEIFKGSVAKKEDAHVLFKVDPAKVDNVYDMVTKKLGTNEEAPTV

[2] = molecular target: T2, HAG702 (homologous to GCN5), yeast two-hybrid fusion (rice (Oryza sativa)) (UniProt Q338B9)
T2 sequence: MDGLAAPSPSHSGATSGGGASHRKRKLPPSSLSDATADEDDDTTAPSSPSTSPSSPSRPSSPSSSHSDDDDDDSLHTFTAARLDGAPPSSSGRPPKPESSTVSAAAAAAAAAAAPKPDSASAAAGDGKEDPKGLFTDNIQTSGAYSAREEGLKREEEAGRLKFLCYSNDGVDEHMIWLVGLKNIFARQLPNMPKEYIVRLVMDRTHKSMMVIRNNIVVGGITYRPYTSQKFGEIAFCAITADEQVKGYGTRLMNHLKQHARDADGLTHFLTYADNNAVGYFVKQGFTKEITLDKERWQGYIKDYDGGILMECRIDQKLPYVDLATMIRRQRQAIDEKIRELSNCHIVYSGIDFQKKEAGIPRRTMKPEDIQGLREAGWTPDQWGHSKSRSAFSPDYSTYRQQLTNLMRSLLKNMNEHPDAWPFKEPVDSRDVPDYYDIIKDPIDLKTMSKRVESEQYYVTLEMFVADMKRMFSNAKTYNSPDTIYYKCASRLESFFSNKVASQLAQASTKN

[3] = molecular target: T3, HAG703 (homologous to ELP3), yeast two-hybrid fusion (rice (Oryza sativa)) (UniProt Q7X7L3)
T3 sequence: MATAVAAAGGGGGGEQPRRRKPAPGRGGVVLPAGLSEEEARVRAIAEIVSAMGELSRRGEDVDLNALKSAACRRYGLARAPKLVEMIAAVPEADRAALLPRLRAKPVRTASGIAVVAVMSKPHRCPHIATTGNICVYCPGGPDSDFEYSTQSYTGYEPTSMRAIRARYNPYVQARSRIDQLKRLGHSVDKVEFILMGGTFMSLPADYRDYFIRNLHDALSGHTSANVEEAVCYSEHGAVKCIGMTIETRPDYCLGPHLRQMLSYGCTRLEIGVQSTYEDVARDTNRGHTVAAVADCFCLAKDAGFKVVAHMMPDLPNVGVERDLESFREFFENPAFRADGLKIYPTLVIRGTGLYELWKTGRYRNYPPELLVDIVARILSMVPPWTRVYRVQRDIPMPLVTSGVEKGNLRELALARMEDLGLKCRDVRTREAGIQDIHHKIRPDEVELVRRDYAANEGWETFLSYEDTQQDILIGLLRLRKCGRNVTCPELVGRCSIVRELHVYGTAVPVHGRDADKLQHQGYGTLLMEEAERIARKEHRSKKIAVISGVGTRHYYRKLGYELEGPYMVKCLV

Substance: ATP-citrate lyase subunit A2 (ACLA2), yeast two-hybrid fusion (rice (Oryza sativa))
- binding [1]: binds
- binding [2]: no binding
- binding [3]: binds
